Assay results taken from publication PMC2744266, “The Ataxia (ax ^J) Mutation Causes Abnormal GABAA Receptor Turnover in Mice” (PLoS Genetics, 2009).
Results are given in words; binding and its absence hold for the method and conditions named. For some of these results: Binding seen in cells or lysates may run through a third protein. Some results given as binding are weak or reduced against the parent protein; the word gives no strength. For some of these results: Where a sequence is shown, tags or fusion partners need not be part of it.

Tests used:
[1] = target: GABAAR α1 subunit, full length, expressed in HEK293 cells (UniProt P62812); experiment: co-IP; HEK293 cells harvested in 1% Triton X-100 48 h after transfection; antibodies on protein G beads; extracts incubated over night; 50 mM TrisHCl, 150 mM NaCl, 5 mM MgCl2, pH 7.1
[2] = target: T1, GABAAR α1 loop deletion mutant aa 334–346, two-hybrid bait (UniProt P62812); experiment: two-hybrid; Matchmaker LexA yeast two-hybrid system; bait in pGilda, prey in pJG4-5; activation of LEU2 and lacZ reporter genes
T1 sequence: NYFTKRGYAWDGK

[3] = target: T2, large intracellular loop of GABAAR α1 (aa 334–420), two-hybrid bait (UniProt P62812); experiment: as above
T2 sequence: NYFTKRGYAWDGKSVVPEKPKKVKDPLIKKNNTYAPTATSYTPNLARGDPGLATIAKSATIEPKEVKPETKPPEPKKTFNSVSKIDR

[4] = target: T3, GST-tagged GABAAR α1 loop (aa 334–420) (UniProt P62812); experiment: pull-down; GST fusion from E. coli BL21 lysate coupled to glutathione-sepharose beads for 3 h; lysate applied for 10-12 h; Western blot; only the target purified
T3 sequence: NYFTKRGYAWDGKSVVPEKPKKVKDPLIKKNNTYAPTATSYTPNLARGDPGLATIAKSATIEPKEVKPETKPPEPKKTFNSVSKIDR

For “GFP-Usp14(H434A-D450A) (from UniProt Q9JMA1 1-493) (enzyme)”, the binding [1] was “binds”.

With “Usp14LF (full-length long form of ubiquitin-specific protease 14), two-hybrid prey (from UniProt Q9JMA1 1-493) (enzyme)” the binding [2] was “binds” and the binding [3] was “binds”.

B1: Endogenous Usp14 protein derived from mouse brain lysates (enzyme, mouse (endogenous in brain), UniProt Q9JMA1 1-493, looked up)
chain: MPLYSVTVKWGKEKFEGVELNTDEPPMVFKAQLFALTGVQPARQKVMVKGGTLKDDDWGNIKMKNGMTVLMMGSADALPEEPSAKTVFVEDMTEEQLATAMELPCGLTNLGNTCYMNATVQCIRSVPELKDALKRYAGALRASGEMASAQYITAALRDLFDSMDKTSSSIPPIILLQFLHMAFPQFAEKGEQGQYLQQDANECWIQMMRVLQQKLEAIEDDSGRETDSSSAPAVTPSKKKSLIDQYFGVEFETTMKCTESEEEEVTKGKENQLQLSCFINQEVKYLFTGLKLRLQEEITKQSPTLQRNALYIKSSKISRLPAYLTIQMVRFFYKEKESVNAKVLKDVKFPLMLDVYELCTPELQEKMVSFRSKFKDLEDKKVNQQPNANDKNSPPKEIKYEPFSFADDIGSNNCGYYDLQAVLTHQGRSSSSGHYVSWVRRKQDEWIKFDDDKVSIVTPEDILRLSGGGDWHIAYVLLYGPRRVEIMEEESEQ
For B1, the binding [4] was “binds”.
